Data as given in PubChem BioAssay AID1508597 (Cure First, 2020)
The deposit covers about 2,100 reagents; below is a random part of them. 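Calls flag viability under 80% in either arm, not effects specific to rucaparib; the reference for percent is not stated.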 Unmarked entries are inactive. Not given: the 100% reference.

Aim: 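Knock-downs altering ovarian cancer cell survival with or without PARP inhibitor rucaparib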 (primary screen)
Cell system: human ovarian carcinoma lines grown from tumours: OCI-P5x (papillary serous) and OCI-C5x (clear cell)
Reagent: siRNA pool against human genes, 1.25 pmol siRNA per well
Duration: 72 h or 96 h, depending on the cell culture
Challenge: rucaparib 20 µM (about IC30) or vehicle, present until read-out
Measurement: 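ATP luminescence measured at 72 or 96 h according to the culture, then normalised and expressed as percent viability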
Direction: viability, normalised: higher = more viable cells remaining
Call rule: 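a well counts as a hit if its normalised viability is under 80 percent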
Meaning of the calls: active = viability under 80%; inactive = viability 80% or more

gene symbol | rucaparib or vehicle | cell line | technical replicate | viability, normalised (%)
OGA (GeneID 10724) | Rucaparib | OCI-C5x (clear cell) | 1 | 44.6 (active)
OGA (GeneID 10724) | Rucaparib | OCI-C5x (clear cell) | 2 | 31.8 (active)
OGA (GeneID 10724) | Rucaparib | OCI-C5x (clear cell) | 3 | 37.1 (active)
OGA (GeneID 10724) | Rucaparib | OCI-P5x (serous) | 1 | 47.4 (active)
OGA (GeneID 10724) | Rucaparib | OCI-P5x (serous) | 2 | 33.1 (active)
OGA (GeneID 10724) | Rucaparib | OCI-P5x (serous) | 3 | 46.5 (active)
OGA (GeneID 10724) | Vehicle | OCI-C5x (clear cell) | 1 | 27.3 (active)
OGA (GeneID 10724) | Vehicle | OCI-C5x (clear cell) | 2 | 37.1 (active)
OGA (GeneID 10724) | Vehicle | OCI-C5x (clear cell) | 3 | 37.4 (active)
OGA (GeneID 10724) | Vehicle | OCI-P5x (serous) | 1 | 56.2 (active)
OGA (GeneID 10724) | Vehicle | OCI-P5x (serous) | 2 | 56.5 (active)
OGA (GeneID 10724) | Vehicle | OCI-P5x (serous) | 3 | 57.1 (active)
DGKB (GeneID 1607) | Rucaparib | OCI-C5x (clear cell) | 1 | 39.9 (active)
DGKB (GeneID 1607) | Rucaparib | OCI-C5x (clear cell) | 2 | 39.6 (active)
DGKB (GeneID 1607) | Rucaparib | OCI-C5x (clear cell) | 3 | 46.2 (active)
DGKB (GeneID 1607) | Rucaparib | OCI-P5x (serous) | 1 | 107
DGKB (GeneID 1607) | Rucaparib | OCI-P5x (serous) | 2 | 83.4
DGKB (GeneID 1607) | Rucaparib | OCI-P5x (serous) | 3 | 112
DGKB (GeneID 1607) | Vehicle | OCI-C5x (clear cell) | 1 | 80.6
DGKB (GeneID 1607) | Vehicle | OCI-C5x (clear cell) | 2 | 85.1
DGKB (GeneID 1607) | Vehicle | OCI-C5x (clear cell) | 3 | 42.4 (active)
DGKB (GeneID 1607) | Vehicle | OCI-P5x (serous) | 1 | 90.2
DGKB (GeneID 1607) | Vehicle | OCI-P5x (serous) | 2 | 94.5
DGKB (GeneID 1607) | Vehicle | OCI-P5x (serous) | 3 | 108
DMTF1 (GeneID 9988) | Rucaparib | OCI-C5x (clear cell) | 1 | 47.3 (active)
DMTF1 (GeneID 9988) | Rucaparib | OCI-C5x (clear cell) | 2 | 46.6 (active)
DMTF1 (GeneID 9988) | Rucaparib | OCI-C5x (clear cell) | 3 | 46.6 (active)
DMTF1 (GeneID 9988) | Rucaparib | OCI-P5x (serous) | 1 | 69.8 (active)
DMTF1 (GeneID 9988) | Rucaparib | OCI-P5x (serous) | 2 | 77.7 (active)
DMTF1 (GeneID 9988) | Rucaparib | OCI-P5x (serous) | 3 | 70 (active)
DMTF1 (GeneID 9988) | Vehicle | OCI-C5x (clear cell) | 1 | 46.2 (active)
DMTF1 (GeneID 9988) | Vehicle | OCI-C5x (clear cell) | 2 | 38.2 (active)
DMTF1 (GeneID 9988) | Vehicle | OCI-C5x (clear cell) | 3 | 32.7 (active)
DMTF1 (GeneID 9988) | Vehicle | OCI-P5x (serous) | 1 | 63.2 (active)
DMTF1 (GeneID 9988) | Vehicle | OCI-P5x (serous) | 2 | 69.4 (active)
DMTF1 (GeneID 9988) | Vehicle | OCI-P5x (serous) | 3 | 66.4 (active)
PRKCZ (GeneID 5590) | Rucaparib | OCI-C5x (clear cell) | 1 | 56.4 (active)
PRKCZ (GeneID 5590) | Rucaparib | OCI-C5x (clear cell) | 2 | 32.8 (active)
PRKCZ (GeneID 5590) | Rucaparib | OCI-C5x (clear cell) | 3 | 47.5 (active)
PRKCZ (GeneID 5590) | Rucaparib | OCI-P5x (serous) | 1 | 73.6 (active)
PRKCZ (GeneID 5590) | Rucaparib | OCI-P5x (serous) | 2 | 56.6 (active)
PRKCZ (GeneID 5590) | Rucaparib | OCI-P5x (serous) | 3 | 78.2 (active)
PRKCZ (GeneID 5590) | Vehicle | OCI-C5x (clear cell) | 1 | 81.3
PRKCZ (GeneID 5590) | Vehicle | OCI-C5x (clear cell) | 2 | 66 (active)
PRKCZ (GeneID 5590) | Vehicle | OCI-C5x (clear cell) | 3 | 64.3 (active)
PRKCZ (GeneID 5590) | Vehicle | OCI-P5x (serous) | 1 | 62.5 (active)
PRKCZ (GeneID 5590) | Vehicle | OCI-P5x (serous) | 2 | 61.4 (active)
PRKCZ (GeneID 5590) | Vehicle | OCI-P5x (serous) | 3 | 87.2

8 of these entries, reformatted:
DMTF1 (GeneID 9988), rucaparib or vehicle Rucaparib, cell line OCI-C5x (clear cell), technical replicate 1 | viability, normalised (%) = 47.3 (active)
DMTF1 (GeneID 9988), rucaparib or vehicle Rucaparib, cell line OCI-C5x (clear cell), technical replicate 2 | viability, normalised (%) = 46.6 (active)
DMTF1 (GeneID 9988), rucaparib or vehicle Rucaparib, cell line OCI-C5x (clear cell), technical replicate 3 | viability, normalised (%) = 46.6 (active)
DMTF1 (GeneID 9988), rucaparib or vehicle Rucaparib, cell line OCI-P5x (serous), technical replicate 1 | viability, normalised (%) = 69.8 (active)
DMTF1 (GeneID 9988), rucaparib or vehicle Rucaparib, cell line OCI-P5x (serous), technical replicate 2 | viability, normalised (%) = 77.7 (active)
DMTF1 (GeneID 9988), rucaparib or vehicle Rucaparib, cell line OCI-P5x (serous), technical replicate 3 | viability, normalised (%) = 70 (active)
DMTF1 (GeneID 9988), rucaparib or vehicle Vehicle, cell line OCI-C5x (clear cell), technical replicate 1 | viability, normalised (%) = 46.2 (active)
DMTF1 (GeneID 9988), rucaparib or vehicle Vehicle, cell line OCI-C5x (clear cell), technical replicate 2 | viability, normalised (%) = 38.2 (active)
